Substitutions are numbered along the chain they refer to. These are yes or no findings as the source states them, for the method shown. Some binding calls cover weakened binding; strength is not graded here.
B1: SEQ ID NO 110 (protein)
chain: LLQLKLRASMSTKCNLENQIKKLEDDRSSLQTAKAGLEDECKTLRQKVEILNELYLQT
B2: SEQ ID NO 115 (protein)
chain: QKRVDALNDEIRQLQQENRQLLNERIKLEGIITRVETYLNENLRKRLDQVEQELNELRETEGGTVLTATTSEK
B3: SEQ ID NO 117 (protein)
chain: ETKNALNVVKNDLIAKVDQLSGEQEVLKGELEAAKQAKVKLENRIKELEKELKRVKSEAVTARREPREEVD
B4: SEQ ID NO 119 (protein)
chain: HSQALITTDRLKDAIFKERHCKAQLEIIVHRLQNEVKKLTIELMKARDQQED
B5: SEQ ID NO 96 (protein)
chain: ELIVRITSLEVENQNLRGVVQDLQQAISKLEARLSSLEKSSPTPRATAPQTQHVSPMRQVEPPTKKGATPAEV
B6: SEQ ID NO 36 (protein)
chain: RKWKGMLSQLQELRKEEETLLRLKAALHDQLNRLKVEELALQSMINSRGRTETLSSQPAPEQLCDMSLHVDNEVTINQTTP
B7: SEQ ID NO 38 (protein)
chain: B6 chain with Q9R, K24N
B8: SEQ ID NO 39 (protein)
chain: B6 chain with Q9R, T51A
B9: SEQ ID NO 40 (protein)
chain: B6 chain with Q9R, A59T, P81T
B10: SEQ ID NO 41 (protein)
chain: B6 chain with Q9R, T80K, P81L
B11: SEQ ID NO 42 (protein)
chain: B6 chain with Q9R, P81Q
B12: SEQ ID NO 43 (protein)
chain: B6 chain with Q9R, T80R
B13: SEQ ID NO 44 (protein)
chain: B6 chain with K4E, Q9R, T80R
B14: SEQ ID NO 47 (protein)
chain: WKGMLSRLQELRKEEETLLRLKAALHDQLNRLKVEELALQSMINSRGRTETLSSQPAPEQLCDMSLHVDNEVTINQTTL
B15: SEQ ID NO 48 (protein)
chain: B14 chain with T17A
B16: SEQ ID NO 49 (peptide)
chain: KGMLSRLQELRKEEETLLRLKAALHDQLNRLKVKELALQSMINSRGR

What was measured:
[1] = target: bait c-Jun protein from the pCMV-cJun(502-957)CBPzz vector; test: IVV cotranslation selection, bait c-Jun
[2] = target: bait c-Jun protein from the pCMV-cJun(502-957)CBPzz vector; test: pull-down on IgG agarose, C-terminal labeled prey, bait c-Jun
[3] = target: bait c-Jun protein from the pCMV-cJun(502-957)CBPzz vector; test: pull-down on IgG agarose, C-terminal labeled prey, with and without bait c-Jun, SDS-PAGE fluorescence

Binder	binding [1]	binding [2]	binding [3]
B1	binds	binds	binds
B2	binds	binds	binds
B3	binds	binds	binds
B4	binds	binds	binds
B5	binds	binds	
B6	binds		
B7	binds		
B8	binds		
B9	binds		
B10	binds		
B11	binds		
B12	binds		
B13	binds		
B14	binds		
B15	binds		
B16	binds		
